From PMC10556141 come the findings set out here.

Chains of the proteins cited; added tags and fusions are not shown. Lines headed by an entry give the natural chain unless they say otherwise; changes in a name come on top.
UniProt P06778: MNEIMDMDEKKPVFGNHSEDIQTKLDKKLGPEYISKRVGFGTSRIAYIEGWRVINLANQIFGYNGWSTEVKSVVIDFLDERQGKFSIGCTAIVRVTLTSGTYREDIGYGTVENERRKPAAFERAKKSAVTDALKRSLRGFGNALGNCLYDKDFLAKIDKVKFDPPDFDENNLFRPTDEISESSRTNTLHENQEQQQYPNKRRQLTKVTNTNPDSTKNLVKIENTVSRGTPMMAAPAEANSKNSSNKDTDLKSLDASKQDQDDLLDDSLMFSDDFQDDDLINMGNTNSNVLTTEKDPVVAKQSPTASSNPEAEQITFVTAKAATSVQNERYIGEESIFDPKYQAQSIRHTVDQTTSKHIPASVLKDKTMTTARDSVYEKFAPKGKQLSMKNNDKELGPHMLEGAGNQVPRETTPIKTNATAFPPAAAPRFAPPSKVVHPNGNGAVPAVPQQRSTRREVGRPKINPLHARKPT

The exact form of at least one protein or probe is not confirmed. For some assays here: A weaker result is weaker than the reference pair of the same experiment. For some assays here: At least one verdict was read from the data and is not stated in words by the source.

The target of series [1] is Rad52 (Saccharomyces cerevisiae) (UniProt P06778). Briefly: tryptophan quenching. Particulars: more than (dT)45 needed for maximal quenching; AUC: 30 mM HEPES pH 7.8, 100 mM KCl, 10% glycerol, 1 mM TCEP; recombinant protein; residues 1-471; protein details: purified via chitin-binding (CBD) tag, DTT elution; single-stranded DNA.
The target is the same in series [2]. The experiment in a line: FRET. The settings on record: Anisotropy/FRET: 50 mM Tris-acetate pH 7.5, 50 mM KCl, 5 mM MgCl2, 10% glycerol, 1 mM DTT, 0.2 mg/mL BSA, 23 C; recombinant protein; residues 1-471; protein details: purified via chitin-binding (CBD) tag, DTT elution; label: 5'-Cy5, 3'-Cy3; single-stranded DNA.
Another series has as its system Rad52ΔC + Rad52ΔN. Briefly: tryptophan quenching. The settings on record: premixed, initial binding then sharp loss; AUC: 30 mM HEPES pH 7.8, 100 mM KCl, 10% glycerol, 1 mM TCEP; recombinant protein; single-stranded DNA.
A further series deals with Rad52 + Rad52ΔN. Briefly: tryptophan quenching. The settings on record: Rad52 premixed with Rad52ΔN, second phase reduced; AUC: 30 mM HEPES pH 7.8, 100 mM KCl, 10% glycerol, 1 mM TCEP; recombinant protein; single-stranded DNA.

Regarding TTTTTTTTTTTTTTTTTTTT [(dT)20], in series [1], the binding result is “binds more weakly”.

For the sequence TTTTTTTTTTTTTTTTTTTTTTTTTTTTTT [(dT)30], the binding result in series [1] was “binds more weakly”.

As to “TTTTTTTTTTTTTTTTTTTTTTTTTTTTTTTTTTTTTTTTTTTTTTTTTTTTTTTTTTTT [Cy5-(dT)60-Cy3]”, the binding result in series [2] is given as “binds”.

Regarding “TTTTTTTTTTTTTTTTTTTTTTTTTTTTTTTTTTTTTTTTTTTTTTTTTTTTTTTTTTTTTTTTTTTTTTTTTTTTTTTTTTTT [(dT)84]”, the binding result with Rad52ΔC + Rad52ΔN and in the series on Rad52 + Rad52ΔN was “binds more weakly” throughout.
